Test results taken from PubChem BioAssay AID493014 (National Center for Advancing Translational Sciences (NCATS), 2011).
The other results are listed elsewhere or left out. The main result of the screen is listed elsewhere. These columns were measured beside it and carry no call. The list favours compounds with an active or inconclusive main result. The note in brackets gives the kind of curve behind each potency; many fits are weak.

Assay: qHTS Assay to Find Inhibitors of Chronic Active B-Cell Receptor Signaling
Details: ABC-DLBCL IkBa-CBG/CBR reporter, luminescence ratio (green luciferase fused to IkBa over red control in TMD8 lymphoma cells), 4 h
In short: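 Concentration-response series (up to 46 uM) were applied to TMD8 dual-reporter cells for 4 h at 37C with doxycycline. Green/red ratio, after filter-overlap correction, defined %Activity; red signal alone was normalised to basal cells and zero luminescence.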

[1] = measured here: CBR red luminescence, cell number
[2] = measured here: IkBa-CBG green luminescence

Row | SMILES | AC50 [1] | AC50 [2]
1 | CCCCNC(=O)C(C#N)c1nc2ccccc2nc1N1CCCC1 (stereo not given) | 6.51 µM [falling, partial curve, poor fit] | –
2 | CS(=O)(=O)c1ccc2nc(NC(=O)CCC(=O)c3cccs3)sc2c1 | 6.51 µM [rising, partial curve, poor fit] | –
3 | CC1(C)Cc2ccccc2C(N/N=C/c2ccc(Cl)cc2)=N1 | 0.461 µM [rising, full curve, poor fit] | –
4 | COc1ccc(NC(=O)CSc2nnc(-c3ccco3)n2N)cc1Cl | 0.631 µM [falling, full curve, poor fit] | –
5 | COc1cc2nc(COc3ccc(C#N)cc3)n(CC#N)c(=O)c2cc1OC | 15.8 µM [falling, partial curve, poor fit] | –
6 | Cc1ccc2nc(-c3ccccc3)c(NC(=O)c3ccco3)n2c1 | 9.2 µM [falling, partial curve] | –
7 | CC(=O)Nc1ccc(C(=O)OCC(=O)Nc2ccccc2F)cc1 | 35.5 µM [falling, single point] | –
8 | CCCC(=O)Nc1nc2ccc(OC)cc2s1 | 1.03 µM [falling, full curve, poor fit] | –
9 | CCN(CC)S(=O)(=O)c1ccc(N2CCOCC2)c(NC(=O)COc2ccc(OC)cc2)c1 | 25.9 µM [rising, single point] | –
10 | CCc1nnc(NC(=O)Cc2ccc(Br)cc2)s1 | 3.16 µM [rising, partial curve, poor fit] | –
11 | CC1CCC/C(=C\Nc2ccc(C(=O)O)cc2)C1=O (stereo not given) | 0.398 µM [falling, full curve, poor fit] | –
12 | O=[N+]([O-])c1ccc(O)c(C=Nc2ccc3oc(Cc4ccc(Cl)cc4)nc3c2)c1 | 1.78 µM [falling, full curve, poor fit] | –
13 | COc1ccccc1-n1cnnc1SCC(=O)c1ccc[nH]1 | 4.11 µM [falling, single point] | 6.51 µM [rising, partial curve, poor fit]
14 | Cc1cc(Cl)n2nc(C)c(-c3ccc(Cl)cc3)c2n1 | 12.6 µM [falling, partial curve, poor fit] | –
15 | COc1cccc(CN(C(=O)COc2ccc(C)cc2)C2CCS(=O)(=O)C2)c1 (stereo not given) | 10 µM [falling, partial curve, poor fit] | –
16 | COc1ccc(CCNc2nc(-c3ccc(F)cc3)c(CC(=O)O)s2)cc1OC | 11.2 µM [falling, partial curve, poor fit] | –
17 | COc1ccc(F)cc1C(=O)C1CCCN(Cc2cn(C)c3ccccc23)C1 (stereo not given) | 28.2 µM [falling, single point] | –
18 | COC(=O)c1cccc(COC(=O)CNC(=O)c2ccco2)c1 | 12.6 µM [rising, partial curve, poor fit] | –
19 | CCCOc1ccc(N2C(=O)CC(N(Cc3ccc(S(N)(=O)=O)cc3)C(=O)CC)C2=O)cc1 (stereo not given) | 1.16 µM [falling, full curve, poor fit] | –
20 | COc1ccc(NC(=O)c2ccc(Cl)nc2)cc1S(=O)(=O)N1CCCCC1 | 12.6 µM [falling, partial curve] | 8.91 µM [rising, partial curve, poor fit]

Entries shown so far that contain a COOH group (2):
Row | SMILES | AC50 [1] | AC50 [2]
11 | CC1CCC/C(=C\Nc2ccc(C(=O)O)cc2)C1=O (stereo not given) | 0.398 µM [falling, full curve, poor fit] | –
16 | COc1ccc(CCNc2nc(-c3ccc(F)cc3)c(CC(=O)O)s2)cc1OC | 11.2 µM [falling, partial curve, poor fit] | –

The listing continues.

Row | SMILES | AC50 [1] | AC50 [2]
21 | OCCN1CCN(CC/C=C2/c3ccccc3Sc3ccc(C(F)(F)F)cc32)CC1 | 29.1 µM [falling, single point] | –
22 | COc1ccc([C@]23Cc4ccccc4C(O2)c2c(cc(C)n(Cc4ccccc4)c2=O)O3)cc1 | 5.62 µM [rising, single point] | –
23 | COc1cc(OC)cc(-n2nnnc2SCC(=O)Nc2nc3c(s2)CCCC3)c1 | 2.91 µM [rising, single point] | –
24 | COc1ccccc1-c1noc(CCC(=O)Nc2cc(C(F)(F)F)ccc2Cl)n1 | 23.1 µM [rising, partial curve, poor fit] | –
25 | O=C(NC(NNc1ccc([N+](=O)[O-])cc1)(C(F)(F)F)C(F)(F)F)c1ccc(F)cc1 | 14.6 µM [falling, single point] | –
26 | CC1CCCCC12NC(=O)N(CC(=O)NC(=O)NCc1ccco1)C2=O (stereo not given) | 0.00461 µM [falling, full curve, poor fit] | –
27 | O=C(Nc1ccccc1)C1=C[C@@H](C2CCCCC2)C[C@@H](OCCCCO)O1 | 11.2 µM [falling, partial curve, poor fit] | –
28 | COc1ccccc1CNC(=O)CSc1ccc(-c2cccs2)nn1 | 35.5 µM [falling, single point] | –
29 | O=C(CCC(=O)N1CCN(Cc2ccc(F)cc2)CC1)Nc1nnc(C2CCCCC2)s1 | 11.2 µM [rising, partial curve, poor fit] | –
30 | COc1cccc(-c2csc(N3CCN(C(=O)Nc4ccccc4OC)CC3)n2)c1 | 29.1 µM [rising, partial curve, poor fit] | –
31 | COC(=O)/C(=C\c1ccc(O)cc1)c1nc2ccccc2[nH]1 | 8.91 µM [falling, partial curve, poor fit] | –
32 | CCCn1nc(C(=O)Nc2cccc(C(=O)OC)c2)c2ccccc2c1=O | 10 µM [falling, partial curve, poor fit] | –
33 | Cc1ccc(S(=O)(=O)N[C@@H](CC(C)C)C(=O)N2CCC(C(=O)N[C@H](C(=O)O)C(C)C)CC2)cc1 | 15.8 µM [falling, single point] | –
34 | Cc1nc(/C(N)=N/OC(=O)c2ccccc2Cl)c(C(F)(F)F)o1 | 11.2 µM [falling, partial curve, poor fit] | –
35 | Cc1cccc(Nc2ncnc3nc[nH]c23)c1 | 6.51 µM [falling, partial curve] | –
36 | O=C(/C=C/c1cccc([N+](=O)[O-])c1)Nc1ccc(NC(=O)c2cccs2)cc1 | 0.103 µM [falling, full curve, poor fit] | –
37 | Cc1ccc(S(=O)(=O)NC2CCOC(C)(C)C2)cc1 (stereo not given) | 23.1 µM [falling, partial curve] | 18.4 µM [rising, partial curve, poor fit]
38 | O=C(N/N=C/c1ccccc1OC(=O)c1ccc2c(c1)OCO2)c1cccc(F)c1 | 29.1 µM [falling, partial curve, poor fit] | –
39 | COc1ccc(-c2cc(C(=O)N/N=C(\C)c3cccnc3)c3ccccc3n2)cc1 | – | 15.8 µM [falling, partial curve, poor fit]
40 | CCN(c1ccccc1)S(=O)(=O)c1cccc(C(=O)Nc2ccc(C)cn2)c1 | 7.08 µM [falling, partial curve] | –

Reformatted with tabs: entries from further up
Row	SMILES	AC50 [1]	AC50 [2]
30	COc1cccc(-c2csc(N3CCN(C(=O)Nc4ccccc4OC)CC3)n2)c1	29.1 µM [rising, partial curve, poor fit]	–
31	COC(=O)/C(=C\c1ccc(O)cc1)c1nc2ccccc2[nH]1	8.91 µM [falling, partial curve, poor fit]	–

(more compounds)

Row | SMILES | AC50 [1] | AC50 [2]
41 | Clc1ccc(-c2nnc(-c3ccc(Br)o3)o2)c(Cl)c1 | 5.62 µM [rising, partial curve] | –
42 | COc1ccccc1OCCC(=O)OCC(=O)Nc1cc(S(=O)(=O)N(C)C)ccc1Cl | 35.5 µM [falling, single point] | –
43 | O=c1c(-c2ccco2)[n+]([O-])c2ccccc2n1OCc1ccccc1F | 0.731 µM [falling, full curve, poor fit] | –
44 | CCCc1cc(=O)oc2c3c(ccc12)OCN(Cc1ccc(OC)cc1)C3 | 12.6 µM [rising, single point] | –
45 | Cc1ccc(CN2C(=O)CCC2C(=O)N2CCN(c3ccccc3)CC2)cc1 (stereo not given) | 35.5 µM [falling, single point] | –
46 | O=C(O)c1cccc(-n2sc3ccccc3c2=O)c1 | 3.66 µM [falling, full curve] | 9.2 µM [rising, partial curve, poor fit]
47 | O=C(CCN1C(=O)c2ccccc2C1=O)NC(=S)Nc1ccccc1Cl | 29.1 µM [falling, single point] | –
48 | COC(=O)c1ccc2c(=O)n(CCCCCC(=O)N3CCN(c4ccccc4)CC3)c(=O)[nH]c2c1 | 1.64 µM [falling, partial curve] | –
49 | O=C(NCCc1ccccc1)c1coc(=O)c(Br)c1 | 5.62 µM [rising, single point] | 14.1 µM [falling, partial curve, poor fit]
50 | O=C(CCN1C(=O)COc2ccccc21)NCCCN1CCc2ccccc2C1 | 29.1 µM [rising, single point] | –
51 | O=C(CC1(O)C(=O)Nc2cc(Cl)cc(Cl)c21)c1ccccc1O (stereo not given) | 10.3 µM [falling, partial curve, poor fit] | –
52 | CCN(CC)CCC(=O)Nc1ccc2c(c1)N(C(=O)CN(CC)CC)c1ccccc1CC2 | 1.58 µM [falling, partial curve, poor fit] | –
53 | N/C(Cc1ccc([N+](=O)[O-])cc1)=N\OC(=O)c1ccc([N+](=O)[O-])cc1 | 11.6 µM [rising, partial curve, poor fit] | –
54 | COC(=O)Nc1nnc(CC(=O)Nc2ccccc2C)s1 | 4.61 µM [falling, single point] | –
55 | O=C(NN=C(Cc1ccccc1)Cc1ccccc1)c1ccc(F)cc1 | 8.2 µM [falling, partial curve] | –
56 | O=C(CCCSc1nc2ccccc2s1)NCc1ccco1 | – | 2.24 µM [rising, full curve, poor fit]
57 | O=C(O)COc1ccc(-c2nccc(-c3cccs3)n2)cc1 | 8.91 µM [falling, partial curve] | –
58 | CCCc1[nH]nc2c1C(c1c(C)nn(-c3ccccc3)c1Cl)C(C#N)=C(N)O2 (stereo not given) | 20.6 µM [falling, single point] | –
59 | CCN(CC(=O)Nc1ccc(OC)cc1)C(=O)c1ccc2c(c1)NC(=O)C(C)S2 (stereo not given) | 23.1 µM [falling, single point] | –
60 | COc1ccc(/C=C/c2ccc3cccc(O)c3n2)cc1Br | 3.98 µM [rising, partial curve] | –
